Test results reported in patent publication EP4725967A1 (Nanjing Probio Biotech Co., Ltd., dated 2026).
Results are given in words; binding and its absence hold for the method and conditions named. Some results given as binding are weak or reduced against the parent protein; the word gives no strength.

Amino acid sequences for entries named in this document (tags omitted). A change or cut given only in a name is not applied to a line headed by its entry. Chains listed by the source or under a name are the forms on record and can include a tag or linker.
monkey CCR8 (monkey (cyno)) (G7NYJ2, form named): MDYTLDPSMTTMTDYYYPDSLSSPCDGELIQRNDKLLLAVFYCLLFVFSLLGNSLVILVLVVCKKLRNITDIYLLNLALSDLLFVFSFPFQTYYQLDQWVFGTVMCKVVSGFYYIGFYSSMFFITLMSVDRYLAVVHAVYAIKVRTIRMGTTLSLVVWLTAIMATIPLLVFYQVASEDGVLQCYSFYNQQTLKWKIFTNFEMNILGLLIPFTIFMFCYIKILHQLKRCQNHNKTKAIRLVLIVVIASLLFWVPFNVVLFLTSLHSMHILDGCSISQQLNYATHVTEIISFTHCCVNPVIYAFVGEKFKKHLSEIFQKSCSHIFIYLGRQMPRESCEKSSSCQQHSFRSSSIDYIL
UniProt P51685: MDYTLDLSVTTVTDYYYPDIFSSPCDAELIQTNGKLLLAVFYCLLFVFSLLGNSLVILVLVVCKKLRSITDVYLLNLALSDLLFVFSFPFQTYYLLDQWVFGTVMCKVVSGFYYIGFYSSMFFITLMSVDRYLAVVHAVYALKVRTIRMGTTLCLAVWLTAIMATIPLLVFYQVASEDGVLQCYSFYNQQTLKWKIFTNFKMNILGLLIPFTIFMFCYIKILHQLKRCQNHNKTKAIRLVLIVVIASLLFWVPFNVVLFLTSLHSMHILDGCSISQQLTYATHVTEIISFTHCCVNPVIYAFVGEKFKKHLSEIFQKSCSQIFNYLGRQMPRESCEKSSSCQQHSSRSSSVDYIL

Legend:
[1] = target: monkey CCR8 (monkey (cyno)) (UniProt G7NYJ2); assay: flow cytometry on HEK293/cyno-CCR8 cells, chimeric antibody (FIG. 2)
[2] = target: monkey CCR8 (monkey (cyno)) (UniProt G7NYJ2); assay: flow cytometry on HEK293/cyno-CCR8 cells (FIG. 5B)
human CCR8 = target: T1, human CCR8 (human, UniProt P51685 1-355); assay: flow cytometry on HEK293/hu-CCR8 cells (FIG. 5A)
T1 construct: whole, on cells; also called hu-CCR8; CC chemokine receptor 8

[3] = target: monkey CCR8 (monkey (cyno)) (UniProt G7NYJ2); assay: flow cytometry, hybridoma supernatant on HEK293/cyno CCR8 cells

B1: chimeric antibody 224E9A3 (antibody, human IgG1, kappa, V domains shown)
VH: EVQLVESGGGLVQPKGSLKLSCAASGFTFNTYAMYWVCQAPGKGLEWVARIRSKSNNYATYYADSVKDRFTISRDDSQSMLYLQMNNLKTEDTAMYYCVRGGRGNYLYAMDYWGQGTSVTVSS
VL: DIVMTQAAPSVPVTPGESVSISCRSSKSLLHSNGNTYLYWFLQRPGQSPQLLIYRMSNLASGVPDRFSGSGSGSAFTLRISRVEAEDVGVYYCMQHLEYPFTFGSGTKLEIKR
notes: Murine variable regions on human IgG1/kappa
- binding [1]: binds

B2: humanized antibody 125C1E6-VH1.1-VL1 (antibody, human IgG1, kappa, V domains shown)
VH: EVQLVESGGGLVQPGGSLKLSCAASGFNFNAYAMNWVRQASGKGLEWVGRIRSKSNYYATYYADSVKDRFTISRDDSKNTAYLQMNSLKTEDTAVYYCVRQGYFGTRESRRYFDVWGQGTLVTVSS
VL: EIVLTQSPGTLSLSPGERATLSCKASESVGSYVSWYQQKPGQAPRLLIYGASTRYTGIPARFSGSGSGTDFTLTISSLEPEDFAVYYCGQNYIYPLTFGGGTKLEIKR
- binding [2]: binds
- binding (human CCR8): binds

B3: humanized antibody 125C1E6-VH3-VL1 (antibody, human IgG1, kappa, V domains shown)
VH: EVQLVESGGGLVQPGRSLRLSCTASGFNFNAYAMNWVRQAPGKGLEWVGRIRSKSNYYATYYADSVKDRFTISRDDSKSIAYLQMNSLKTEDTAVYYCVRQGYFGTRESRRYFDVWGQGTLVTVSS
VL: EIVLTQSPGTLSLSPGERATLSCKASESVGSYVSWYQQKPGQAPRLLIYGASTRYTGIPARFSGSGSGTDFTLTISSLEPEDFAVYYCGQNYIYPLTFGGGTKLEIKR
- binding [2]: binds
- binding (human CCR8): binds

B4: antibody produced by monoclonal clone 224E9A3 (murine, hybridoma) (antibody, V domains shown)
VH: EVQLVESGGGLVQPKGSLKLSCAASGFTFNTYAMYWVCQAPGKGLEWVARIRSKSNNYATYYADSVKDRFTISRDDSQSMLYLQMNNLKTEDTAMYYCVRGGRGNYLYAMDYWGQGTSVTVSS
VL: DIVMTQAAPSVPVTPGESVSISCRSSKSLLHSNGNTYLYWFLQRPGQSPQLLIYRMSNLASGVPDRFSGSGSGSAFTLRISRVEAEDVGVYYCMQHLEYPFTFGSGTKLEIK
notes: Mouse antibody in hybridoma supernatant
- binding [3]: binds
